Results are given in words; binding and its absence hold for the method and conditions named. In cells and extracts the contact can be indirect. A yes stands for co-enrichment or nearness to the bait. Other partners may have been found. For some of these results: No binding means not detected with the bait. Sequences can lack the tags named with a protein.
T1: GFP-tagged MAGEC2 L318D (human) (UniProt Q9UBF1)
T1 sequence: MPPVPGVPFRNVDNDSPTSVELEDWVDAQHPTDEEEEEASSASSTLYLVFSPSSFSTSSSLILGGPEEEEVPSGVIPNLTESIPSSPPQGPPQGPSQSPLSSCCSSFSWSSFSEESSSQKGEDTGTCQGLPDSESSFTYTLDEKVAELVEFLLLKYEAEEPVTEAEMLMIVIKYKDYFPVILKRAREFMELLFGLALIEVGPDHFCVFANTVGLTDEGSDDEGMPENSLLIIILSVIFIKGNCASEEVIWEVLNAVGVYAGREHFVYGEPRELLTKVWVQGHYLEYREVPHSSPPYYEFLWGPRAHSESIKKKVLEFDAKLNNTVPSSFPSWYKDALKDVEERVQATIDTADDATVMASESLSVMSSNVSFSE

By UniProt entry, the sequences of proteins in these tests, tags left out.
UniProt Q13263: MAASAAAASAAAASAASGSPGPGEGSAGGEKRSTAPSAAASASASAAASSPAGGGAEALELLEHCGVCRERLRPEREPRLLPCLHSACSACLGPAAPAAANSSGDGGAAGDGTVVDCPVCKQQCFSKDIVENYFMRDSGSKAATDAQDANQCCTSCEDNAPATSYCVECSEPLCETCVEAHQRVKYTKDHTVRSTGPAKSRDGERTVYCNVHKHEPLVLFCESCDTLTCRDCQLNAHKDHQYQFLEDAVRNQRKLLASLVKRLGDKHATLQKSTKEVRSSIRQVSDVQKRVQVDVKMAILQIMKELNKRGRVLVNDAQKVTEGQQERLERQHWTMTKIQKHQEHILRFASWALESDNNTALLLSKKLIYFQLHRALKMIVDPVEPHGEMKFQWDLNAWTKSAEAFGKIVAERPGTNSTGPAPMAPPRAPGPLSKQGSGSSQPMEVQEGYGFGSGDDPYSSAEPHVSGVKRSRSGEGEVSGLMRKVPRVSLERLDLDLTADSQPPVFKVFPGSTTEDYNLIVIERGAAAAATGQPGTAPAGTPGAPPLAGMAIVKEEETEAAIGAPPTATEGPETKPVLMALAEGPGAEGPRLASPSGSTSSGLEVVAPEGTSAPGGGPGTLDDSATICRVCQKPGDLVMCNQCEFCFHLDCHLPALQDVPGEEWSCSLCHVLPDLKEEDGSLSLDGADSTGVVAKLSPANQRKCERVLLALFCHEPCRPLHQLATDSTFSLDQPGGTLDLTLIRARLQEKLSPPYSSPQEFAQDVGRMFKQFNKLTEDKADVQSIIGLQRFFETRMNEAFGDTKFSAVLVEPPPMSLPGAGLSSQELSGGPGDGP

T2: GFP-tagged MAGEC2 wild type (human) (UniProt Q9UBF1)
T2 sequence: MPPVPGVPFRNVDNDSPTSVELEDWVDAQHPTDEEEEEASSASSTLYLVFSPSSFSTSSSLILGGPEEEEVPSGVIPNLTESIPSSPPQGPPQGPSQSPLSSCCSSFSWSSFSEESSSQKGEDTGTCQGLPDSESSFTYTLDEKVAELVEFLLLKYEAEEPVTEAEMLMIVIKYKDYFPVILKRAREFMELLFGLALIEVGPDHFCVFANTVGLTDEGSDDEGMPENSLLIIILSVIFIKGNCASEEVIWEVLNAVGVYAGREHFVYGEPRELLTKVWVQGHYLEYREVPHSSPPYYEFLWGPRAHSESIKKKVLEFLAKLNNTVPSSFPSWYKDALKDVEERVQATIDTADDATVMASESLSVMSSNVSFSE


How the values were obtained:
[1] = molecular target: T1, GFP-tagged MAGEC2 L318D (human); assay: affinity purification with mass spectrometry; GFP-MAGEC2 WT or L318D expressed in HEK293T; 500 µg lysate (50 mM Tris pH 7.5, 150 mM NaCl, 1% Triton X-100) on GFP-Trap agarose 2 h at 4 °C; TMT quantitative mass spectrometry, WT against L318D, triplicate
[2] = molecular target: T2, GFP-tagged MAGEC2 wild type (human); assay: as above

| binding [1] | binding [2] | Molecule |
| --- | --- | --- |
| no binding | binds | Tripartite motif-containing protein 28 (TRIM28), endogenous (from UniProt Q13263 1-835) (enzyme) |
| no binding | binds | MAGEB2 (protein, UniProt O15479 1-319) MPRGQKSKLRAREKRRKARDETRGLNVPQVTEAEEEEAPCCSSSVSGGAASSSPAAGIPQEPQRAPTTAAAAAAGVSSTKSKKGAKSHQGEKNASSSQASTSTKSPSEDPLTRKSGSLVQFLLYKYKIKKSVTKGEMLKIVGKRFREHFPEILKKASEGLSVVFGLELNKVNPNGHTYTFIDKVDLTDEESLLSSWDFPRRKLLMPLLGVIFLNGNSATEEEIWEFLNMLGVYDGEEHSVFGEPWKLITKDLVQEKYLEYKQVPSSDPPRFQFLWGPRAYAETSKMKVLEFLAKVNGTTPCAFPTHYEEALKDEEKAGV |

From article PMC10987633, “Structural basis for RAD18 regulation by MAGEA4 and its implications for RING ubiquitin ligase binding by MAGE family proteins” (The EMBO Journal, 2024)
